# Test results from US7220576B2, “Methods and compositions for protein expression and purification” (Lifesensors, Inc., priority 2002, dated 2007).
# B1: Hub1-GFP (protein)
# chain: MGHHHHHHGSDSEVNQEAKPEVKPEVKPETHINLKVSDGSSEIFFKIKKTTPLRRLMEAFAKRQGKEMDSLRFLYDGIRIQADQAPEDLDMEDNDIIEAHREQIGG
# System: yeast
# Test: Expression and cleavage of UBL-GFP / SUMO-X-GFP fusions in yeast (Western blot)
# Assay type: cell-based, S. cerevisiae
# Details: yeast BJ1991, copper induction
molecule,measurement,value
B1,Cleavage of fusion by endogenous hydrolases in yeast,not cleaved
